{"source": "PubChem BioAssay AID602196 (INSERM, 2012)", "assay": "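Modifiers of cisplatin sensitivity in A549 cells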", "system": "human A549 lung cancer cells", "reagent": "siRNA pair against human genes", "timing": "48 h transfection before cisplatin; time from cisplatin to read-out not stated", "challenge": "cisplatin at a dose killing half of control-siRNA cells; exact dose and duration not given", "measurement": "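Shift in cisplatin death relative to control siRNA, from -50 (all cells die) to +50 (no cells die); siRNAs harmful on their own scored 0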", "direction": "two-siRNA summed score (-2 to +2): higher = both siRNAs protect from cisplatin killing; -2 means both sensitise", "call rule": "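siRNAs harmful alone (LDH or WST-1) get 0; others get +1 for less and -1 for more cisplatin killing; genes are active when the two siRNAs give the same sign, summing to ±2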", "meaning of the calls": "active = both siRNAs shift cisplatin killing the same way; inactive = no consistent shift, or siRNA harmful alone", "note": "The deposit covers about 23,000 reagents; below is a random part of them. 455 of them (2%) were called active. 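Active includes both protection and sensitisation; some change values fall well beyond the stated -50 to +50 range.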 Unmarked entries are inactive. Reagents against one gene are numbered here. Further read-outs or replicates are left out here. No sequences are given here. The record does not give: the amount of reagent."}
{"Target gene": "NOXO1", "reagent no.": 1, "two-siRNA summed score (-2 to +2)": 1}
{"Target gene": "DRC4", "reagent no.": 1, "two-siRNA summed score (-2 to +2)": 1}
{"Target gene": "ENTPD6", "reagent no.": 1, "two-siRNA summed score (-2 to +2)": 1}
{"Target gene": "LOC440309", "reagent no.": 1, "two-siRNA summed score (-2 to +2)": 1}
{"Target gene": "ADH1A", "reagent no.": 1, "two-siRNA summed score (-2 to +2)": 0}
{"Target gene": "LOC150519 (retired record)", "reagent no.": 1, "two-siRNA summed score (-2 to +2)": 0}
{"Target gene": "EIF3F", "reagent no.": 1, "two-siRNA summed score (-2 to +2)": 0}
{"Target gene": "BASP1", "reagent no.": 1, "two-siRNA summed score (-2 to +2)": 0}
{"Target gene": "CLEC16A", "reagent no.": 1, "two-siRNA summed score (-2 to +2)": 0}
{"Target gene": "TRHR", "reagent no.": 1, "two-siRNA summed score (-2 to +2)": 0}
{"Target gene": "NBEAL1", "reagent no.": 1, "two-siRNA summed score (-2 to +2)": 0}
{"Target gene": "NBEAL1", "reagent no.": 2, "two-siRNA summed score (-2 to +2)": 0}
{"Target gene": "ALDH5A1", "reagent no.": 1, "two-siRNA summed score (-2 to +2)": 0}
{"Target gene": "SCGB1D2", "reagent no.": 1, "two-siRNA summed score (-2 to +2)": 0}
{"Target gene": "LOC284009", "reagent no.": 1, "two-siRNA summed score (-2 to +2)": 1}
{"Target gene": "DICER1-AS1", "reagent no.": 1, "two-siRNA summed score (-2 to +2)": 1}
{"Target gene": "CTSD", "reagent no.": 1, "two-siRNA summed score (-2 to +2)": 1}
{"Target gene": "DGAT2-DT", "reagent no.": 1, "two-siRNA summed score (-2 to +2)": 1}
{"Target gene": "FAM230I", "reagent no.": 1, "two-siRNA summed score (-2 to +2)": "2 (active)"}
{"Target gene": "TROAP", "reagent no.": 1, "two-siRNA summed score (-2 to +2)": 0}
{"Target gene": "KCNMB3", "reagent no.": 1, "two-siRNA summed score (-2 to +2)": 0}
